Test [1] has as its target Cellular tumor antigen p53 (Homo sapiens) (UniProt P04637). Description: kinase inhibitors altering GFP-p53 stability in HPV16-positive cells, imaging, known kinase inhibitor set, EGFP/DsRed ratio (AID 1053116; call rule not given here;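 also: cells exposed to compounds for 24 h at 37 °C before reading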). To be noted: stronger effect = higher value; EGFP object count: measured here: GFP-p53 positive objects count.
Test [2] can be described thus: growth inhibition of DIPG glioma cells, dose response, cell-based, SU-DIPG-XIII, MIPE4.0, CellTiter-Glo, qHTS (AID 1347061; cut-off not given, nearly all actives have AC50 up to about 37 µM;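 also: cells exposed to compound for 48 hours before readout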). To be noted: SU-DIPG-XIII viability, CellTiter-Glo ATP luminescence. In general terms: Cellular ATP, detected with luciferase, serves as a proxy for viable cell number.
For test [3], the system named is Hepatitis C virus NS3 helicase. Description: HCV NS3 helicase inhibitors, primary screen, biochemical, fluorescence polarization, LOPAC1280 library (AID 687035; in the data active = inhibition above about 37%). To be noted: Purified HCV NS3 helicase, Cy5-dT15 ssDNA binding fluorescence polarization; stronger effect = higher value; concentration not given here.
The nature of test [4]: Cy5 fluorescence quenching or enhancement artefacts, artefact control for HCV NS3 helicase inhibitor project, biochemical, LOPAC1280 (AID 687037; call rule not given here). To be noted: Cy5-DNA-NS3h complex fluorescence interference counterscreen. For orientation: The purpose of a counterscreen is to sort out artefacts and off-target activity.
A short description of test [5]: LFS_MB_P medulloblastoma growth inhibition, cell-based, chromothripsis tumors, cisplatin or BGB combos (AID 1671449).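 Also: cells exposed for 96 hours; 0% = vehicle DMSO and 100% = killing by high DMSO.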 To be noted: LFS_MB_P medulloblastoma cells.
The nature of test [6]: HDN33 neuroblastoma growth inhibition, cell-based, chromothripsis tumors, cisplatin or BGB combos (AID 1671450).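 Also: cells exposed to compound for four days; 0% = vehicle DMSO and 100% = cell killing by high DMSO.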 To be noted: HDN33 neuroblastoma cells, stronger effect = higher value.
A short description of test [7]: ICB984 medulloblastoma cell growth inhibition, synergistic combos for chromothripsis tumors, cisplatin or BGB combos (AID 1671451; call rule not given here;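 also: cells exposed for 96 hours before readout; 0% = vehicle DMSO and 100% = killing by high DMSO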). To be noted: ICB984 medulloblastoma cells, drug combinations, stronger effect = higher value.
A short description of test [8]: LFS_MB_1R medulloblastoma cell growth inhibition, synergistic combos for chromothripsis tumors, cisplatin or BGB combos (AID 1671452).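 Also: cells exposed for 96 hours before readout.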 To be noted: LFS_MB_1R medulloblastoma cells, stronger effect = higher value.
Test [9] in a line: HTB85 osteosarcoma cell growth inhibition, synergistic combos for chromothripsis tumors, BGB or cisplatin IC20 combos (AID 1671453).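 Also: cells exposed for 96 hours before readout; 0% = vehicle DMSO and 100% = high DMSO killing control.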 To be noted: HTB85 osteosarcoma cells, drug combinations, stronger effect = higher value.
Test [10] in a line: CRL2098 osteosarcoma cell growth inhibition, synergistic combos for chromothripsis tumors, BGB or cisplatin IC20 combos (AID 1671454).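 Also: cells exposed for 96 h before readout; 0% = vehicle DMSO and 100% = killing by high DMSO.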 To be noted: CRL2098 osteosarcoma cells, drug combinations, stronger effect = higher value.
Test [11] can be described thus: HD-MB03 medulloblastoma cell growth inhibition, synergistic combos for chromothripsis tumors, BGB or cisplatin IC20 combos (AID 1671455; in the data active = inhibition above about 83%;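 also: 0% = vehicle DMSO and 100% = high DMSO as cytotoxic control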). To be noted: HD-MB03 medulloblastoma cells, stronger effect = higher value.
Test [12] can be described thus: UWB1.289 ovarian carcinoma cell growth inhibition, synergistic combos for chromothripsis tumors, BGB or cisplatin combos (AID 1671456).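 Also: cells exposed to compound for four days; 0% = vehicle DMSO and 100% = killing by high DMSO.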 To be noted: UWB1.289 ovarian carcinoma cells, stronger effect = higher value.
The nature of test [13]: LFS_MB_2R medulloblastoma cell growth inhibition, synergistic combos for chromothripsis tumors, cisplatin combos (AID 1671457).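 Also: cells exposed to compound for four days before readout.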 To be noted: LFS_MB_2R medulloblastoma cells, stronger effect = higher value.
Test [14] can be described thus: MDA-MB-436 breast carcinoma cell growth inhibition, synergistic combos for chromothripsis tumors, BGB or cisplatin combos (AID 1671458; call rule not given here;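 also: cells exposed for 96 hours; 0% = vehicle DMSO and 100% = killing by high DMSO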). To be noted: MDA-MB-436 breast carcinoma growth inhibition, drug combinations, stronger effect = higher value.
A short description of test [15]: UWB1.289_BRCA1 ovarian cancer growth, cell-based, BGB or cisplatin combinations (AID 1671459). To be noted: UWB1.289 BRCA1 ovarian carcinoma, drug combinations, stronger effect = higher value.
Test [16] can be described thus: human astrocyte viability loss, single and combined drugs, cytotoxicity control for chromothriptic childhood tumor combination screen, cell-based, BGB or cisplatin IC20 combos (AID 1671460).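 Also: cells exposed to compounds for 96 hours before viability readout; 0% = vehicle and 100% = killing control.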 To be noted: Human astrocytes, drug combinations, stronger effect = higher value.
Test [17] can be described thus: growth inhibition of BT084 medulloblastoma cells, cell-based, ICGC_MB145, cisplatin and BGB IC40 combos (AID 1671461).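 Also: cells exposed to drugs for 96 hours; 0% = vehicle DMSO and 100% = high DMSO full killing control.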 To be noted: drug combinations, stronger effect = higher value.
Test [18] is described as follows: growth inhibition of RCMB18 medulloblastoma cells, cell-based, cisplatin and BGB IC40 combos (AID 1671462).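 Also: cells exposed to compound for four days.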 To be noted: stronger effect = higher value.
Test [19] is described as follows: growth inhibition of CRL1545 osteosarcoma cells, cell-based, cisplatin and BGB IC20 combos (AID 1671464).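 Also: cells exposed to compound for 96 hours before readout; 0% = vehicle DMSO and 100% = high DMSO killing control.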 To be noted: stronger effect = higher value.
The mark [20] stands for this setting: measured here: combination with BGB IC40, at 0.05 µM.
[21] abbreviates: measured here: with BGB IC20 combination, at 0.5 µM.
Setting [22] is: measured here: with cisplatin IC20 combination, at 0.5 µM.
Where [23] appears, read: measured here: combination with cisplatin, at 0.5 µM.
Where [24] appears, read: measured here: combination with cisplatin, at 5 µM.

Protein sequences, listed by entry. Tags and fused reporters are not part of them.
UniProt P04637, whole entry, looked up: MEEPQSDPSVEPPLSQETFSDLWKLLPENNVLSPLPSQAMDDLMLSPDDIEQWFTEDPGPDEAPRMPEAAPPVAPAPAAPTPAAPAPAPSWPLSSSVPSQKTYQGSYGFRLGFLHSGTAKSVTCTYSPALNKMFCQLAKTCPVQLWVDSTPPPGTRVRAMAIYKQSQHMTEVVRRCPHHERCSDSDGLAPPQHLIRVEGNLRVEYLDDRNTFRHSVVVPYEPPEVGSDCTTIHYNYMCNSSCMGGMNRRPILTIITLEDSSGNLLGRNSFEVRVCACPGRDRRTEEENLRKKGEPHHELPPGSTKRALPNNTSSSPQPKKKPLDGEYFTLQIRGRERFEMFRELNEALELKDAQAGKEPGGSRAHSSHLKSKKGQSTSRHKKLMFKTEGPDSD

Experimental findings from PubChem BioAssay are described below.

Structures are written as SMILES. For part of these data: This list holds what a sample rich in hits left over. Inconclusive results are not listed. Only a part is listed here, and it is no random draw. The source made the active and inactive calls. Rule as the data show it, unless noted: active = inhibition above about 80%; inactive = the rest.

As for `COc1ccccc1Oc1nccc(-c2c(-c3ccc(F)cc3)ncn2C2CCNCC2)n1`, in test [1], the EGFP object count was 5 and the EGFP/DsRed ratio was inactive: 0.16.
Take `Cc1ccccc1-n1c(Cn2nc(-c3cccc(O)c3)c3c(N)ncnc32)nc2cccc(C)c2c1=O`: in [2], the compound was called inactive.
For `O=C1NC(=O)C(c2ccccc2Cl)=C1Nc1cc(Cl)c(O)c(Cl)c1`, in test [1], the EGFP object count was 4 and the EGFP/DsRed ratio was inactive: 0.333.
In the case of `CC(C)(C)c1ccc(Oc2nccc(-c3c(-c4ccc(F)cc4)ncn3C3CCNCC3)n2)cc1`, in test [1], the EGFP object count was 8.5 and the EGFP/DsRed ratio is inactive: 0.206.
The like results for `COc1ccccc1C1=C(Nc2ccccc2)C(=O)NC1=O` were, in that order, 1 and inactive: 0.0172.
In general, inhibition refers to the drop in the measured response relative to a control, in per cent. As for `CN1C2CCC1CC(OC(=O)C(O)c1ccccc1)C2` (stereo unspecified), in test [3], the inhibition is inactive: -3%. Also, the fluorescence ratio (interference) in test [4] is inactive: 1.
As for `Cc1cccc(Oc2nccc(-c3c(-c4ccc(F)cc4)ncn3C3CCNCC3)n2)c1C`, in test [1], the EGFP object count came out at 5 and the EGFP/DsRed ratio is inactive: 0.062.
Regarding `Cc1ccc(C(=O)NCCCCCC(=O)Nc2ccccc2N)cc1`, the inhibition was inactive: -24% in test [5] (at 0.5 µM, stronger effect = higher value); -13.9% in [5] (measured here: combination with BGB IC20, at 0.005 µM); -24.7% in [5] (measured here: combination with BGB IC40, at 0.005 µM); -44.7% in [5] (setting [20]); -33.9% in test [5] (measured here: combination with cisplatin, at 0.5 µM, stronger effect = higher value); 106% in test [5] (measured here: combination with cisplatin, at 5 µM, stronger effect = higher value). Besides, the inhibition in test [6] (BGB combo, at 5 µM) is 55.8%; in test [6] (at 0.5 µM), inactive: -17%; in test [6] (cisplatin combo, at 5 µM), 62.7%; in [6] (setting [21]), -30.5%; in test [6] (setting [22]) it was -14.4%; in [6] (single agent, at 5 µM), 48.8%. Also, the inhibition in test [7] (BGB IC20 combo, at 0.005 µM) was -22%; in test [7] (BGB IC40 combo, at 0.005 µM), -28.1%; in test [7] (BGB IC40 combo, at 0.05 µM) it was 36.4%; in test [7] (at 0.5 µM) it was inactive: -33.8%; in [7] (cisplatin combo, at 0.05 µM), 34.1%; in test [7] (cisplatin combo, at 0.5 µM) it was -38.9%. The inhibition was -14.8% in [7] (cisplatin combo, at 5 µM); -7.87% in test [7] (measured here: 5 uM single agent, at 5 µM); inactive: -4.96% in [8] (at 0.5 µM); -44.2% in test [8] (setting [20]); -4.88% in [8] (setting [23]); 77% in test [8] (setting [24]). Moreover, the inhibition in test [9] (at 0.5 µM) is inactive: -10.9%; in test [9] (measured here: with BGB IC20, at 0.5 µM) it was -24.1%; in test [9] (measured here: with BGB IC20, at 5 µM), 31.4%; in [9] (measured here: with cisplatin IC20, at 0.5 µM), 6.35%; in test [9] (measured here: with cisplatin IC20, at 5 µM), 73.8%; in test [9] (single agent, at 5 µM), 29.5%. Moreover, the inhibition is inactive: -59.8% in test [10] (at 0.5 µM); -33.7% in test [10] (measured here: combination with BGB at IC20, at 0.5 µM); -83.3% in test [10] (measured here: combination with cisplatin at IC20, at 0.5 µM); inactive: -1.07% in test [11] (at 0.5 µM); -8.03% in test [11] (measured here: combo with BGB at IC20, at 0.5 µM); 12.1% in test [11] (measured here: combo with cisplatin at IC20, at 0.5 µM). Moreover, the inhibition is inactive: 1.95% in test [12] (at 0.5 µM); -20.2% in test [12] (measured here: inhibition with BGB combination, at 0.05 µM); -13.3% in test [12] (measured here: inhibition with cisplatin combination, at 0.05 µM); inactive: -13.9% in test [13] (at 0.5 µM); -4.39% in [13] (setting [23]); 69.8% in [13] (setting [24]). Moreover, the inhibition in test [14] (at 0.5 µM) is inactive: -15.7%; in [14] (measured here: BGB combination, at 0.5 µM), -23.1%; in test [14] (measured here: BGB combination, at 5 µM), 24.4%; in test [14] (measured here: cisplatin combination, at 0.5 µM) it was -20.6%; in test [14] (measured here: cisplatin combination, at 5 µM), 34.8%; in [15] (BGB combination, concentration series, at 5 µM), 58%. Besides, the inhibition was inactive: -4.8% in [15] (at 0.5 µM); 64.8% in test [15] (cisplatin combination, concentration series, at 5 µM); inactive: -10.8% in [16] (at 0.5 µM); -18.9% in test [16] (measured here: combo with BGB IC20, at 0.5 µM); -6.7% in [16] (measured here: combo with cisplatin IC20, at 0.5 µM); inactive: 32.2% in test [17] (at 0.5 µM). The inhibition in test [17] (cisplatin combination, at 0.5 µM) was 12.1%; in test [17] (cisplatin combination, at 5 µM), 95.2%; in [17] (measured here: BGB IC40 combination 0.05 uM, at 0.05 µM), 39.8%; in test [17] (single agent, at 5 µM), 52.6%; in test [18] (at 0.5 µM), inactive: 27%; in test [18] (cisplatin combo, at 5 µM), 84.1%. The inhibition in test [18] (measured here: BGB IC40 combination, at 0.05 µM) was 1.43%; in test [18] (setting [23]), 58.4%; in test [18] (single agent, at 5 µM), 63.8%; in test [19] (at 0.5 µM), inactive: 4.28%; in test [19] (setting [21]), -20.4%; in test [19] (setting [22]), 15.3%. Moreover, the inhibition is 22.8% in [19] (single agent, at 0.05 µM) and 31.2% in test [19] (single agent, at 5 µM).
